Earlier results as cited in patent US20130336953A1, “USE OF CREATINE KINASE FOR PREVENTING OR TREATING ADDICTION TO OPIATES” (UNIVERSITÉ DE STRABOURG, priority 2011, published 2013).

System: acidic alpha-1-glycoprotein
Conditions: cited from earlier work

CN1CC[C@]23c4c5ccc(O)c4O[C@H]2[C@@H](O)C=C[C@H]3[C@H]1C5 [morphine]
binding to acidic alpha-1-glycoprotein: binding weakly
